No constants are given. Whether binding was seen depends on the method and setting. In cells and extracts the contact can be indirect. Some results given as binding are weak or reduced against the parent protein; the word gives no strength. Sequences can lack the tags named with a protein.
Legend:
[1] = biological target: Plexin B1 (human (endogenous in DU145)) (UniProt O43157); assay: proximity ligation; DU145 cells treated with B1SP or rhIgGFc and stimulated with SEMA3C; interactions/cell; only the binder purified
[2] = biological target: Plexin B1 (human (endogenous in DU145)) (UniProt O43157); assay: proximity ligation; DU145 cells treated with the recombinant Fc fusion protein (SEMA3C:Fc or B1SP) or rhIgG1Fc as control; interactions/cell; reports two proteins less than 40 nm apart; only the binder purified

Chains of the proteins cited; added tags and fusions are not shown. Residues count along the entry.
UniProt O43157, residues 20-2135: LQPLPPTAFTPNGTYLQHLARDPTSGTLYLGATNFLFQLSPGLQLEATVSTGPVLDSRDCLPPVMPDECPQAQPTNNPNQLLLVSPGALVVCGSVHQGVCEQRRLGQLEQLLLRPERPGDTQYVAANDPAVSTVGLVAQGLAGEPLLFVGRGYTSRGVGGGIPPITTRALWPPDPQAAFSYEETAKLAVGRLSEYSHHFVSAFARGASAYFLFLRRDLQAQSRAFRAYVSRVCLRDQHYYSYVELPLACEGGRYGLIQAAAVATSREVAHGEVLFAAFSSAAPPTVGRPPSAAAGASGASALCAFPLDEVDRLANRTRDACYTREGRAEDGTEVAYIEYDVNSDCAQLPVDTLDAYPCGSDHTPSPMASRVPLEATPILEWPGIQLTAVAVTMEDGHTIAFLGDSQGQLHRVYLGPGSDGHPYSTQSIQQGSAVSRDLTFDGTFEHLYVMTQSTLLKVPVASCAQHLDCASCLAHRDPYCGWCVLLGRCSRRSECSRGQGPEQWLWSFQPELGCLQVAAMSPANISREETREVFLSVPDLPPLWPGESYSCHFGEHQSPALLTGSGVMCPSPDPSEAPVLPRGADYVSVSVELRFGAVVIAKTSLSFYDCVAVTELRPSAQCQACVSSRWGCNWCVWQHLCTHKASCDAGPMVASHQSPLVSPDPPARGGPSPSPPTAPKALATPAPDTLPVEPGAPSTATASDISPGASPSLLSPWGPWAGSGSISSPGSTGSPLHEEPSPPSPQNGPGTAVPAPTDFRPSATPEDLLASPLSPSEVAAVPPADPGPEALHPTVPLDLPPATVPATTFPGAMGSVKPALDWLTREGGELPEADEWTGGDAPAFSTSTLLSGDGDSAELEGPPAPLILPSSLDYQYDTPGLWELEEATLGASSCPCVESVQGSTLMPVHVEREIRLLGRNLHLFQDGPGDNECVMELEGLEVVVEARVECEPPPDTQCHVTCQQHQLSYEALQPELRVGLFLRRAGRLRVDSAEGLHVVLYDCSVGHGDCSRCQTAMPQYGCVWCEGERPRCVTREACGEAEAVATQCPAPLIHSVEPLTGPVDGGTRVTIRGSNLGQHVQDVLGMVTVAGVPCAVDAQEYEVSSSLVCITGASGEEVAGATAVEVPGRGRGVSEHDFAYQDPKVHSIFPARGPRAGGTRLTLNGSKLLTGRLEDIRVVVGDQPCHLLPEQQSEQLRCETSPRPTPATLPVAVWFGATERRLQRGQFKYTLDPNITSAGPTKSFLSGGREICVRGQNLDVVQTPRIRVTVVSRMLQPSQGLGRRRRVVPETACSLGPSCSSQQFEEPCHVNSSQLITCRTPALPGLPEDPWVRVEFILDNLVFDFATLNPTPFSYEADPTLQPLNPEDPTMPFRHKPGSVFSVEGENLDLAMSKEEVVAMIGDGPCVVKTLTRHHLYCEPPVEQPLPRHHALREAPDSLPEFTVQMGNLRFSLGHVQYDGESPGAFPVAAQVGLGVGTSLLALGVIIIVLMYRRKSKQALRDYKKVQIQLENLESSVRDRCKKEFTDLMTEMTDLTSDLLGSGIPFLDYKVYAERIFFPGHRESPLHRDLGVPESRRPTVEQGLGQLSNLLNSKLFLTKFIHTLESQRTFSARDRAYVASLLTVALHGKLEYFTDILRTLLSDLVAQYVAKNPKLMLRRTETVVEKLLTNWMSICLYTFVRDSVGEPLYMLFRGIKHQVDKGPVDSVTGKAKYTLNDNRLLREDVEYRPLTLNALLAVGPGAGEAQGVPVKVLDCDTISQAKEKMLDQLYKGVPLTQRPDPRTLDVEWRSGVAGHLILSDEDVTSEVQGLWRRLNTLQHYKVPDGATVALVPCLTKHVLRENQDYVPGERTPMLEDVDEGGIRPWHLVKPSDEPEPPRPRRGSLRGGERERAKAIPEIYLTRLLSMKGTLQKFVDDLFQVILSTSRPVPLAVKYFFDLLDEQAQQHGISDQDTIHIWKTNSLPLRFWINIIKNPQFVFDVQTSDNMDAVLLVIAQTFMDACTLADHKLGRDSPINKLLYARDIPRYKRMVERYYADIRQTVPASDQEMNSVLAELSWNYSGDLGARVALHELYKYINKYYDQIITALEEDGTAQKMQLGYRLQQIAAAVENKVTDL

- binding [1]: binds
- binding [2]: binds
B1: full-length recombinant SEMA3C-Fc fusion protein (Fc fusion, UniProt Q99985 21-751)
chain: GSSQPQARVYLTFDELRETKTSEYFSLSHHPLDYRILLMDEDQDRIYVGSKDHILSLNINNISQEALSVFWPASTIKVEECKMAGKDPTHGCGNFVRVIQTFNRTHLYVCGSGAFSPVCTYLNRGRRSEDQVFMIDSKCESGKGRCSFNPNVNTVSVMINEELFSGMYIDFMGTDAAIFRSLTKRNAVRTDQHNSKWLSEPMFVDAHVIPDGTDPNDAKVYFFFKEKLTDNNRSTKQIHSMIARICPNDTGGLRSLVNKWTTFLKARLVCSVTDEDGPETHFDELEDVFLLETDNPRTTLVYGIFTTSSSVFKGSAVCVYHLSDIQTVFNGPFAHKEGPNHQLISYQGRIPYPRPGTCPGGAFTPNMRTTKEFPDDVVTFIRNHPLMYNSIYPIHKRPLIVRIGTDYKYTKIAVDRVNAADGRYHVLFLGTDRGTVQKVVVLPTNNSVSGELILEELEVFKNHAPITTMKISSKKQQLYVSSNEGVSQVSLHRCHIYGTACADCCLARDPYCAWDGHSCSRFYPTGKRRSRRQDVRHGNPLTQCRGFNLKAYRNAAEIVQYGVKNNTTFLECAPKSPQASIKWLLQKDKDRRKEVKLNERIIATSQGLLIRSVQGSDQGLYHCIATENSFKQTIAKINFKVLDSEMVAVVTDKWSPWTWASSVRALPFHPKDIMGAFSHSEMQMINQYCKDTRQQHQQGDESQKMRGDYGKLKALINSRKSRNRRNQLPES

From article PMC5801490
